Data: patent publication US8980848B2, “Flavonoid dimers and their use” (The Hong Kong Polytechnic University, priority 2010, dated 2015)

Assays:
Details in all cases: IC50 against PEM/IC50 against promastigotes
[1] = test system: LdAG83 promastigotes (wild type); experiment: In vitro anti-promastigote activity, LdAG83; type: cell-based, Leishmania donovani
Procedure: (§1) Cell Lines and Cell Culture. Promastigotes of Leishmania donovani (wild type LdAG83, pentamidine-resistant LdAG83-PentR50, and SSG-resistant Ld39) and Leishmania major [MHOM/IL/67/JERICHO II (Lm50122), from ATCC] were used in this study.
(§2) In Vitro Anti-Promastigote Activity. The viability of promastigotes was determined by the Cell Titer 96° Aqueous Assay (Promega) that employs a tetrazolium compound (MTS, 2-(4,5-Dimethylthiazol-2-yl-)-5-[3-(carboxymethoxy)phenyl]-2-(4-sulfophenyl)-2H-tetrazolium) and electron coupling reagent, phenazine methosulfate (PMS).^7 Promastigotes were seeded into 96-well flat bottom microtiter plate at 1×10^5 cells per well in a final volume of 100 μL medium and incubated with a series concentration of synthetic flavonoid dimers or known antileishmanials. The parasites were incubated at 27° C. for 72 hrs. Fresh solution of 2 mg/mL MTS and 0.92 mg/mL PMS were prepared in a ratio of 20:1 (MTS:PMS). After 72 hrs incubation, 10 μL of MTS:PMS mixture was added into each well of microtiter plate. The plate was then incubated at 27° C. for 4 hrs for color development. After 4 hrs incubation, the OD values were determined at 490 nm using automatic microtiter plate reader (Bio-Rad).

[2] = test system: Ld39 promastigotes (SSG-resistant); experiment: In vitro anti-promastigote activity, Ld39; type: cell-based, Leishmania donovani
Procedure: as §1, §2

Lm50122 promastigotes = experiment: In vitro anti-promastigote activity, Lm50122; type: cell-based, Leishmania major
Procedure: as §1, §2

| Compound | Therapeutic index relative to PEM, LdAG83 [1] | Therapeutic index relative to PEM, Ld39 [2] | Therapeutic index relative to PEM, Lm50122 (Lm50122 promastigotes) |
| --- | --- | --- | --- |
| O=c1cc(-c2ccc(OCCOCCN(CCOCCOc3ccc(-c4cc(=O)c5ccccc5o4)cc3)Cc3ccncc3)cc2)oc2ccccc12 [Compound 21, 1,13-Bis[4′-(4H-chromen-4-on-2-yl)phenyl]-N-(4-pyridylmethyl)-1,4,10,13-tetraoxa-7-azamidecane] | >488.9 | >463.2 | >251.4 |
| O.O.O.O.O.O.O.O.O.O=C([O-])[C@@H]1[O][Sb]2([O-])([O][Sb]34([OH])[O][C@H]([C@H](O)CO)[C@H]([O]3)[C@H](C(=O)[O-])[O]4)[O][C@H]([C@H](O)CO)[C@@H]1[O]2.[Na+].[Na+].[Na+] [Sodium stibogluconate, sodium stibogluconate, reference compound] | >4.1 | >1.6 | >10.5 |
